{"source": "paper PMC3419727", "about": "“Identifying the Hotspots on the Top Faces of WD40-Repeat Proteins from Their Primary Sequences by β-Bulges and DHSW Tetrads” (PLoS ONE, 2012)", "binders": {"B1": {"name": "C-terminal region of S. pombe Fep1 (amino acids 319–564) (domain or fragment, UniProt Q10134 319-564, looked up)", "chain": "AAGEPDNNGKVYYSYGPTQEQSILPLPENKHEGLPPYQNEYVPNGIRANQVVYPGQLVAVGNDSSKQLSESTTSNTDNNGVATANQSNPLGMKFHLPPILPVGESVCLPPRTSAKPRIAEGIASLLNPEEPPSNSDKQPSMSNGPKSEVSPSQSQQAPLIQSSTSPVSLQFPPEVQGSNVDKRNYALNVLSQLRSQHDLMIQELHNLNQHIQQIDEWLRSSDNENMASEHIKSSTPAVVASGALQT", "notes": "Fep1, GATA-factor, S. pombe, C-terminal region, amino acids 319-564"}}, "target": "T1, S. japonicus Tup11 WD40 domain (301–630) Arg384Ala (S. japonicus) (UniProt B6JV84)", "T1 sequence": "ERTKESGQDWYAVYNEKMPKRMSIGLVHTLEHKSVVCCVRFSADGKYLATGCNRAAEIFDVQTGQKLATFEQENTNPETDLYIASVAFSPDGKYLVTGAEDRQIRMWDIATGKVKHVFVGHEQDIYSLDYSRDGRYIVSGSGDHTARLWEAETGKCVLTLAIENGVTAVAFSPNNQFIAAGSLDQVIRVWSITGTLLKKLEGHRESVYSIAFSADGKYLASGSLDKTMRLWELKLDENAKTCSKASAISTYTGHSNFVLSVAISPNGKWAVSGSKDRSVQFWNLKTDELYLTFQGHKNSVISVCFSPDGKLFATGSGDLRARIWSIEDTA", "test": "ITC; Fep1 (~1.4 mM) injected, 2 µl each time, into Tup11 WT or mutant (~0.2 mM); 25°C; 1×PBS pH 7.4, 150 mM NaCl; iTC200 (MicroCal); Fep1 into buffer subtracted as background; both purified", "note": "Results are given in words; binding and its absence hold for the method and conditions named. Some entries that bind do so weakly or less than the wild type."}
{"binder": "B1", "values": [{"measurement": "binding", "value": "binds"}]}
